PubChem BioAssay AID1259308 – NCATS, 2017
Here is one part, drawn at random, of about 59,000 reagents. In the full data, about 1,510 (2.6%) got an active call. 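Calls use total luciferase alone and ignore viability, so some active siRNAs may act by altering cell number.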 A number with no mark means an inactive call. Reagents against one gene are numbered here.

- Assay: 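Candidate targets for better recombinant protein yield in mammalian cells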 (primary screen)
- Cells: human HEK293 embryonic kidney cells stably expressing firefly luciferase (HEK-CMV-Luc2-Hygro)
- Knock-down reagent: single siRNA against human genes, 0.8 pmol siRNA per well
- Timing: 72 h
- Measurement: 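Reporter luminescence and viable-cell signal on separate replicate plates, given as percent of non-targeting control and median/MAD z-scores, plus per-cell luciferase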
- Reading the numbers: total luciferase, z-score and total luciferase, % of control: higher = more reporter protein produced; luciferase per cell, z-score: higher = more reporter output per viable cell; viable cells, % of control: higher = more viable cells
- Hit rule: 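An siRNA counts as active if its total luciferase robust z-score exceeds 3; genes with two or more such siRNAs out of three were retested with fresh siRNAs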
- Meaning of the calls: active = raised luciferase; inactive = no rise

gene knocked down	reagent no.	total luciferase, z-score	total luciferase, % of control	luciferase per cell, z-score	viable cells, % of control
BRPF1	1	1.22	106	1.4	82.1
BRPF1	2	-1.57	50.8	-1.65	87.6
BRPF1	3	0.198	85.8	0.458	85
HPDL	1	-1.03	61.5	-1.26	95.7
HPDL	2	3.1 (active)	144	2.29	87.7
HPDL	3	0.631	94.4	1.05	80
HROB	1	-0.54	71.1	-0.382	87.9
HROB	2	-0.497	72	-0.646	95.4
HROB	3	-1.66	48.9	-2.21	97.9
AMZ2P1	1	-0.992	62.2	-0.286	74.9
AMZ2P1	2	-1.3	56.1	-1.59	95.3
AMZ2P1	3	-1.66	48.8	-0.797	67.3
ZFYVE9	1	0.593	93.7	0.497	91.8
ZFYVE9	2	-0.134	79.2	-0.825	110
ZFYVE9	3	-0.186	78.2	-0.784	107
LAYN	1	-0.496	72	-0.00219	80.5
LAYN	2	-0.665	68.7	-0.379	84.8
LAYN	3	1.06	103	0.2	109
MIA	1	0.992	102	0.724	93.8
MIA	2	-2.06	40.9	-2.14	80.3
MIA	3	-1.45	53	-1.28	83
ZNF565	1	2.52	132	1.26	106
ZNF565	2	-0.892	64.1	-0.196	75.5
ZNF565	3	1.45	111	1.61	81.1
ADGRE1	1	0.711	96	0.734	88.5
ADGRE1	2	-0.0692	80.5	0.0651	88.4
ADGRE1	3	-0.296	76	-0.277	91.3
GCDH	1	-2.08	40.6	-2.77	93.9
GCDH	2	0.538	92.6	-0.183	109
GCDH	3	-0.11	79.7	-0.367	98.1
GLCCI1	1	-0.545	71.1	1.22	57.5
GLCCI1	2	1.07	103	1.08	86.7
GLCCI1	3	-1.01	61.8	-0.984	89.4
NAP1L2	1	0.398	89.8	-0.166	105
NAP1L2	2	-0.684	68.3	-0.0726	77.8
NAP1L2	3	-0.0212	81.5	-0.694	109
BTBD16	1	-1.69	48.4	-2.13	94.6
BTBD16	2	-0.463	72.7	-1.19	111
BTBD16	3	0.0463	82.8	0.142	89.1
TIPE3	1	-1.15	59	0.447	58.6
TIPE3	2	-1.08	60.3	-1.02	88.1
TIPE3	3	0.017	82.2	-0.479	104
ISX	1	-0.586	70.2	-0.307	85.1
ISX	2	0.518	92.2	1.18	75.5
ISX	3	0.295	87.8	0.0372	97.1
VSTM2L	1	1.08	103	1.14	85.7
VSTM2L	2	0.406	90	-0.489	114
VSTM2L	3	-1.01	61.7	-0.791	85
ARL2BPP3	1	-0.769	66.6	-0.808	92
ARL2BPP3	2	-0.948	63	-0.895	89.1
ARL2BPP3	3	0.393	89.7	0.338	91.7
PKD2L2	1	-1.89	44.2	-1.82	79.9
PKD2L2	2	-1.28	56.4	-1.08	83.7
PKD2L2	3	-0.325	75.4	-0.556	97.6
ZSCAN5DP	1	0.818	98.2	0.444	97.6
ZSCAN5DP	2	-0.597	70	-0.308	84.9
ZSCAN5DP	3	1.43	110	1.08	92.8

A run of entries of the results above, as a working copy:
gene knocked down	reagent no.	total luciferase, z-score	total luciferase, % of control	luciferase per cell, z-score	viable cells, % of control
AMZ2P1	2	-1.3	56.1	-1.59	95.3
AMZ2P1	3	-1.66	48.8	-0.797	67.3
ZFYVE9	1	0.593	93.7	0.497	91.8
ZFYVE9	2	-0.134	79.2	-0.825	110
ZFYVE9	3	-0.186	78.2	-0.784	107
